Experimental data from PubChem BioAssay AID493014 (National Center for Advancing Translational Sciences (NCATS), 2011).
Screen size: about 340,000 compounds; about 170 (0.05%) were called active. Inconclusive results, whose numbers are uncertain, are shown with a selection of clear calls. The call rests on the fitted dose curve; in most records, active means well fitted inhibition curve with a large enough effect in the signal ratio, with a control signal flat (not every such curve was filed as active); inconclusive means small, poorly fitted or top-dose-only effect, or effect the other way, or a change in a side signal; inactive means flat fitted curve, though single readings scatter; the % refers to the signal ratio. A potency beside an inconclusive call is a rough fit, not a confirmed value.
Potency means the concentration at half of the fitted maximal effect.

Assay: qHTS Assay to Find Inhibitors of Chronic Active B-Cell Receptor Signaling;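 on activity change, negative = inhibition: plate controls were basal doxycycline-induced cells for no effect and cells given 10 µM MG132 for full effect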
Conditions: ABC-DLBCL IkBa-CBG/CBR reporter, luminescence ratio (green luciferase fused to IkBa over red control in TMD8 lymphoma cells), 4 h; activity change, negative = inhibition: at 46.1 µM (top of the series)
Outline: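 Doxycycline induced both beetle luciferases in TMD8 lymphoma cells; IKK-driven degradation limits the IkappaBalpha-fused green signal, while red luminescence normalises for cell number and nonspecific effects. Compounds tested up to 46 uM, 4 hrs.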
For O=C(Nc1ccc2c(c1)OCCO2)c1ccc(Br)c(S(=O)(=O)N2CCOCC2)c1, the activity change, negative = inhibition was inconclusive: -3.78%.
In the case of O=S(=O)(c1cccc(F)c1)N1CCc2sccc2C1c1ccc(OC(F)(F)F)cc1 (stereo not given), the Potency is reported as inconclusive: 7.08 µM [rising, partial curve, poor fit].
With CNC(=O)CC(CC(=O)c1ccccc1)c1ccccc1 (stereo not given) the activity change, negative = inhibition was inconclusive: -0.428%.
With Cc1ccc(C(=O)Oc2ccc(Cl)c3cccnc23)cc1[N+](=O)[O-] the Potency was inconclusive: 14.1 µM [falling, single point].
In the case of Cc1nc2ccc(Br)cn2c1C(=O)N/N=C\c1ccccc1Cl, the activity change, negative = inhibition is reported as “inactive”.
With CCC1Oc2ccc(C)cc2N(Cc2cccc(C)c2)C1=O (stereo not given) the activity change, negative = inhibition was “inactive”.
In the case of O=C(CSc1nnc2ccccn12)N1CCc2ccccc2C1, the activity change, negative = inhibition is reported as “inactive”.
With CN(C)S(=O)(=O)Oc1cccc(C(=O)Nc2ccccc2Cl)c1 the activity change, negative = inhibition was inconclusive: -14.7%.
With CC(=O)Nc1ccc(Nc2nc(C)c([N+](=O)[O-])c(Nc3ccc(NC(C)=O)cc3)n2)cc1 the activity change, negative = inhibition was inconclusive: 1.59%.
For CCC(=O)Nc1ccc(-c2ccc(N3CCN(C)CC3)nn2)cc1, the activity change, negative = inhibition was “inactive”.
With CCC1CCCCN1CC(=O)c1c(C)[nH]c2ccc(OC)cc12 (stereo not given) the activity change, negative = inhibition was inconclusive: -0.668%.
For Cc1ccc2nc(Nc3nc(CSc4nnc(C)s4)cc(=O)[nH]3)nc(C)c2c1, the Potency was inconclusive: 3.55 µM [falling, partial curve, poor fit].
For CCOC(=O)c1[nH]c(=O)[nH]c1CSc1ccccn1, the activity change, negative = inhibition was “inactive”.
For CCOc1ccc(C2N(c3cc(Cl)ccc3OC)C(=O)C3CCCN32)cc1OC (stereo not given), the activity change, negative = inhibition was inconclusive: -1.2%.
For O=C1N(Cc2cccc(Cl)c2)C[C@@H]2C[C@@H](c3cccn3-c3cccnc3)N3CCC[C@@]123, the activity change, negative = inhibition was “inactive”.
In the case of C/C(=N\NC(=O)COc1ccc2ccccc2c1)c1cccs1, the activity change, negative = inhibition is reported as inconclusive: -0.079%.
In the case of CCOc1ccc(C2=NNC(c3cccnc3)=Nc3ccc(OC)cc32)cc1, the activity change, negative = inhibition is reported as “inactive”.
For CCN(CC)S(=O)(=O)c1ccc(NC(=O)c2ccc(N(C)S(C)(=O)=O)cc2)cc1, the Potency was inconclusive: 29.1 µM [falling, single point].
For COCCNS(=O)(=O)c1ccc(-c2ccc(S(=O)(=O)NCCOC)cc2)cc1, the activity change, negative = inhibition was inconclusive: 12.4%.
In the case of CCOC(=O)C1CCCN(C(=O)c2cc(=O)c3ccccc3o2)C1 (stereo not given), the activity change, negative = inhibition is reported as “inactive”.
For COc1cc(CC(=O)OCC(=O)Nc2sccc2C(N)=O)cc(OC)c1OC, the activity change, negative = inhibition was “inactive”.
For N/C(=N\c1nc2ccccc2o1)NC(=O)c1ccccc1F, the Potency was inconclusive: 12.6 µM [falling, partial curve].
In the case of CC(C)N(C(=O)[C@H]1C[C@H](CC(=O)NCC23CC4CC(CC(C4)C2)C3)C(=O)N2CCc3c([nH]c4ccc(Cl)cc34)[C@]12C)C(C)C, the activity change, negative = inhibition is reported as inconclusive: -6.16%.
For COc1ccc(-c2nnc(SCC(=O)Nc3cc(F)ccc3C)o2)cc1, the Potency was inconclusive: 29.1 µM [falling, partial curve, poor fit].
With COc1cc(-c2noc(C3CCCN(C(=O)c4c(F)cccc4F)C3)n2)cc(OC)c1OC (stereo not given) the Potency was inconclusive: 10 µM [falling, partial curve, poor fit].
In the case of CC1=Nn2c(nnc2-c2cc(-c3ccccc3)n[nH]2)SC1, the activity change, negative = inhibition is reported as “inactive”.
In the case of CCN(CC)CCN(C(=O)/C=C/c1cccs1)c1nc2ccc(F)cc2s1, the activity change, negative = inhibition is reported as inconclusive: -23.4%.
In the case of C/C(CC(=O)Nc1ccc(Cl)c(Cl)c1)=N\NC(N)=S, the Potency is reported as inconclusive: 12.6 µM [falling, partial curve].
In the case of CCC(C)c1ccc(OCc2ccc(C(=O)O)o2)cc1 (stereo not given), the Potency is reported as inconclusive: 22.4 µM [falling, single point].
In the case of O=C(Nc1ccc2c(c1)OCO2)c1cc(-c2ccncc2)nc2ccccc12, the activity change, negative = inhibition is reported as “inactive”.
In the case of CN(CCCNC(=O)c1ccc(N2CCCC2=O)cc1)c1ccccc1, the activity change, negative = inhibition is reported as inconclusive: 4.09%.
For COc1cccc(NC(=O)Nc2ccc3c(c2)OCO3)c1, the Potency was inconclusive: 17.8 µM [falling, single point].
In the case of CCOc1cc(/C=C2/NC(=O)N(CC(=O)OC)C2=O)ccc1OC, the activity change, negative = inhibition is reported as inconclusive: 11.4%.
In the case of COc1ccc2c(c1)cc1c(=O)n(CC(=O)NCCCOC(C)C)nc(C)n12, the activity change, negative = inhibition is reported as inconclusive: -28.5%.
With COc1cc2c(C(=O)N3CCN(c4cccc(C(F)(F)F)c4)CC3)cn(CC(C)C)c(=O)c2cc1OC the activity change, negative = inhibition was inconclusive: -9.04%.
In the case of O=C(Nc1ccc2c(c1)N(S(=O)(=O)c1cccs1)CCC2)c1c(F)cccc1F, the activity change, negative = inhibition is reported as inconclusive: -7.93%.
For COc1ccc2[nH]c3c(c2c1)CCN1C(=O)N([C@@H](C)C(=O)NCc2ccc(F)cc2)C(=O)[C@]31C, the activity change, negative = inhibition was “inactive”.
With COc1ccc(CCC(=O)OCC(=O)Nc2c(C)nn(-c3ccccc3)c2C)cc1 the activity change, negative = inhibition was inconclusive: 2.14%.
For COc1cccc(Nc2nc(C)nc3c2oc2ccccc23)c1, the activity change, negative = inhibition was inconclusive: 0.197%.
For CC(=O)Nc1ccc(NC(=O)C(C)OC(=O)C2(c3ccc(Cl)cc3)CCCC2)cc1 (stereo not given), the activity change, negative = inhibition was inconclusive: 28.8%.
With COc1ccc(Cl)cc1C(=O)NNC(=S)NC1CCCCC1 the activity change, negative = inhibition was “inactive”.
For COCCCn1c(-c2ccccc2Cl)n[nH]c1=S, the activity change, negative = inhibition was inconclusive: 2.71%.
For Cc1nc2c(ccc3c([N+](=O)[O-])cccc32)c(C)c1C, the Potency was inconclusive: 0.251 µM [falling, full curve, poor fit].
In the case of Cc1ccc(C(=O)Nc2ccc(Cl)cn2)cc1, the Potency is reported as inconclusive: 17.8 µM [falling, single point].
With Nc1nc(SCC(=O)Nc2cc(Cl)c(Cl)cc2Cl)n[nH]1 the Potency was inconclusive: 18.4 µM [falling, partial curve, poor fit].
For CC(C)CNC(=O)COC(=O)c1cc(Cl)cc(Cl)c1N, the activity change, negative = inhibition was “inactive”.
With Cc1ccc(/C=C/C(=O)O)cc1S(=O)(=O)Nc1ccc(C(=O)O)cc1 the activity change, negative = inhibition was inconclusive: -0.636%.
For COc1ccc(-c2csc(NC(=O)c3ccccc3NS(=O)(=O)c3ccc(C)cc3)n2)cc1, the activity change, negative = inhibition was inconclusive: -11.4%.
In the case of O=C1C=CC(=O)N1CCNc1ncc(C(F)(F)F)cc1Cl, the Potency is reported as inconclusive: 6.31 µM [falling, single point].
With O=C(NCc1cccnc1)c1cccc(S(=O)(=O)Nc2cccc(Cl)c2)c1 the activity change, negative = inhibition was inconclusive: -3.04%.
